Results are given in words; binding and its absence hold for the method and conditions named. In cells and extracts the contact can be indirect. For some assays here: Binding calls can cover weak binding; strength is not graded here. Sequences can lack the tags named with a protein.
Key:
Assay in all cases: pull-down; GST fusion protein from E. coli on Glutathione Sepharose beads; 35S-labelled in vitro translated Myc-tagged protein, precleared, incubated 1 h at 4 °C in NETN buffer (50 mM Tris pH 8.0, 150 mM NaCl, 1 mM EDTA, 0.5% NP-40); five washes; autoradiography; only the target purified
GST-VAPA (WT) (human) = GST-VAPA (WT) (human) (UniProt Q9P0L0)
[1] = molecular target: GST-VAPA K94D/M96D (human) (UniProt Q9P0L0)
[2] = molecular target: GST-VAPB K87D/M89D (human) (UniProt O95292)

Amino acid sequences for entries named in this document (tags omitted). A change or cut given only in a name is not applied to a line headed by its entry.
UniProt Q9P0L0: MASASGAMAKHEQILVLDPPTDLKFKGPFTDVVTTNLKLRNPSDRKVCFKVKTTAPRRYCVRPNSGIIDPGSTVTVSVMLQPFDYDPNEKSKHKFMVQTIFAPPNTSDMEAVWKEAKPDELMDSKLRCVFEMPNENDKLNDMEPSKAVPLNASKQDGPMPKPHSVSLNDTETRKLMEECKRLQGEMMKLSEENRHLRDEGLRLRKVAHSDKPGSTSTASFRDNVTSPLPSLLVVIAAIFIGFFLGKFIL
UniProt O95292: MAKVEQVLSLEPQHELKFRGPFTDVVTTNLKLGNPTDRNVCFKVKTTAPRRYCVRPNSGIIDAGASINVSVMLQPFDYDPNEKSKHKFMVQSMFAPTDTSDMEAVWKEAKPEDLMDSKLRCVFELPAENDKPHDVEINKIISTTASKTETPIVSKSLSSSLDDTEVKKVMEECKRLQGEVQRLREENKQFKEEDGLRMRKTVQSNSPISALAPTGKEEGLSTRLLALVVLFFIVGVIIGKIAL

Binder	binding (GST-VAPA (WT) (human))	binding [1]	binding [2]
Myc-CALCOCO1 ∆145–513, in vitro translated (protein, UniProt Q9P1Z2, 35S-methionine label) MEESPLSRAPSRGGVNFLNVARTYIPNTKVECHYTLPPGTMPSASDWIGIFKVEAACVRDYHTFVWSSVPESTTDGSPIHTSVQFQASYLPKPGAQLYQFRYVNRQGQVCGQSPPFQFREPRPMDELVTLEEADGGSDILLVVPKWNEDATTEDEEAAVGLSCPAALTDSEDESPEDMRLPPYGLCERGDPGSSPAGPREASPLVVISQPAPISPHLSGPAEDSSSDSEAEDEKSVLMAAVQSGGEEANLLLPELGSAFYDMASGFTVGTLSETSTGGPATPTWKECPICKERFPAESDKDALEDHMDGHFFFSTQDPFTFE	binds	–	–
Myc-CALCOCO1 (full length), in vitro translated (protein, UniProt Q9P1Z2 1-691, 35S-methionine label) MEESPLSRAPSRGGVNFLNVARTYIPNTKVECHYTLPPGTMPSASDWIGIFKVEAACVRDYHTFVWSSVPESTTDGSPIHTSVQFQASYLPKPGAQLYQFRYVNRQGQVCGQSPPFQFREPRPMDELVTLEEADGGSDILLVVPKATVLQNQLDESQQERNDLMQLKLQLEGQVTELRSRVQELERALATARQEHTELMEQYKGISRSHGEITEERDILSRQQGDHVARILELEDDIQTISEKVLTKEVELDRLRDTVKALTREQEKLLGQLKEVQADKEQSEAELQVAQQENHHLNLDLKEAKSWQEEQSAQAQRLKDKVAQMKDTLGQAQQRVAELEPLKEQLRGAQELAASSQQKATLLGEELASAAAARDRTIAELHRSRLEVAEVNGRLAELGLHLKEEKCQWSKERAGLLQSVEAEKDKILKLSAEILRLEKAVQEERTQNQVFKTELAREKDSSLVQLSESKRELTELRSALRVLQKEKEQLQEEKQELLEYMRKLEARLEKVADEKWNEDATTEDEEAAVGLSCPAALTDSEDESPEDMRLPPYGLCERGDPGSSPAGPREASPLVVISQPAPISPHLSGPAEDSSSDSEAEDEKSVLMAAVQSGGEEANLLLPELGSAFYDMASGFTVGTLSETSTGGPATPTWKECPICKERFPAESDKDALEDHMDGHFFFSTQDPFTFE	binds	no binding	no binding
Myc-CALCOCO1 ∆CT (∆514–691), in vitro translated (domain or fragment, UniProt Q9P1Z2 1-513, 35S-methionine label) MEESPLSRAPSRGGVNFLNVARTYIPNTKVECHYTLPPGTMPSASDWIGIFKVEAACVRDYHTFVWSSVPESTTDGSPIHTSVQFQASYLPKPGAQLYQFRYVNRQGQVCGQSPPFQFREPRPMDELVTLEEADGGSDILLVVPKATVLQNQLDESQQERNDLMQLKLQLEGQVTELRSRVQELERALATARQEHTELMEQYKGISRSHGEITEERDILSRQQGDHVARILELEDDIQTISEKVLTKEVELDRLRDTVKALTREQEKLLGQLKEVQADKEQSEAELQVAQQENHHLNLDLKEAKSWQEEQSAQAQRLKDKVAQMKDTLGQAQQRVAELEPLKEQLRGAQELAASSQQKATLLGEELASAAAARDRTIAELHRSRLEVAEVNGRLAELGLHLKEEKCQWSKERAGLLQSVEAEKDKILKLSAEILRLEKAVQEERTQNQVFKTELAREKDSSLVQLSESKRELTELRSALRVLQKEKEQLQEEKQELLEYMRKLEARLEKVADE	no binding	–	–

Further lines, results first:

binding (GST-VAPA (WT) (human))	binding [1]	binding [2]	Binder
binds weakly	–	–	Myc-CALCOCO1 ∆SKICH + ΔLIR ∆671–691, in vitro translated (domain or fragment, UniProt Q9P1Z2 145-670, 35S-methionine label) KATVLQNQLDESQQERNDLMQLKLQLEGQVTELRSRVQELERALATARQEHTELMEQYKGISRSHGEITEERDILSRQQGDHVARILELEDDIQTISEKVLTKEVELDRLRDTVKALTREQEKLLGQLKEVQADKEQSEAELQVAQQENHHLNLDLKEAKSWQEEQSAQAQRLKDKVAQMKDTLGQAQQRVAELEPLKEQLRGAQELAASSQQKATLLGEELASAAAARDRTIAELHRSRLEVAEVNGRLAELGLHLKEEKCQWSKERAGLLQSVEAEKDKILKLSAEILRLEKAVQEERTQNQVFKTELAREKDSSLVQLSESKRELTELRSALRVLQKEKEQLQEEKQELLEYMRKLEARLEKVADEKWNEDATTEDEEAAVGLSCPAALTDSEDESPEDMRLPPYGLCERGDPGSSPAGPREASPLVVISQPAPISPHLSGPAEDSSSDSEAEDEKSVLMAAVQSGGEEANLLLPELGSAFYDMASGFTVGTLSETSTGGPATPTWKECPICKERFPAESDKD
binds	–	–	Myc-CALCOCO1 ∆SKICH (∆1–144), in vitro translated (domain or fragment, UniProt Q9P1Z2 145-691, 35S-methionine label) KATVLQNQLDESQQERNDLMQLKLQLEGQVTELRSRVQELERALATARQEHTELMEQYKGISRSHGEITEERDILSRQQGDHVARILELEDDIQTISEKVLTKEVELDRLRDTVKALTREQEKLLGQLKEVQADKEQSEAELQVAQQENHHLNLDLKEAKSWQEEQSAQAQRLKDKVAQMKDTLGQAQQRVAELEPLKEQLRGAQELAASSQQKATLLGEELASAAAARDRTIAELHRSRLEVAEVNGRLAELGLHLKEEKCQWSKERAGLLQSVEAEKDKILKLSAEILRLEKAVQEERTQNQVFKTELAREKDSSLVQLSESKRELTELRSALRVLQKEKEQLQEEKQELLEYMRKLEARLEKVADEKWNEDATTEDEEAAVGLSCPAALTDSEDESPEDMRLPPYGLCERGDPGSSPAGPREASPLVVISQPAPISPHLSGPAEDSSSDSEAEDEKSVLMAAVQSGGEEANLLLPELGSAFYDMASGFTVGTLSETSTGGPATPTWKECPICKERFPAESDKDALEDHMDGHFFFSTQDPFTFE
binds	–	–	Myc-CALCOCO1 ∆SKICH + ΔLIR FFF/AAA, in vitro translated (domain or fragment, UniProt Q9P1Z2 145-691, 35S-methionine label) KATVLQNQLDESQQERNDLMQLKLQLEGQVTELRSRVQELERALATARQEHTELMEQYKGISRSHGEITEERDILSRQQGDHVARILELEDDIQTISEKVLTKEVELDRLRDTVKALTREQEKLLGQLKEVQADKEQSEAELQVAQQENHHLNLDLKEAKSWQEEQSAQAQRLKDKVAQMKDTLGQAQQRVAELEPLKEQLRGAQELAASSQQKATLLGEELASAAAARDRTIAELHRSRLEVAEVNGRLAELGLHLKEEKCQWSKERAGLLQSVEAEKDKILKLSAEILRLEKAVQEERTQNQVFKTELAREKDSSLVQLSESKRELTELRSALRVLQKEKEQLQEEKQELLEYMRKLEARLEKVADEKWNEDATTEDEEAAVGLSCPAALTDSEDESPEDMRLPPYGLCERGDPGSSPAGPREASPLVVISQPAPISPHLSGPAEDSSSDSEAEDEKSVLMAAVQSGGEEANLLLPELGSAFYDMASGFTVGTLSETSTGGPATPTWKECPICKERFPAESDKDALEDHMDGHAAASTQDPFTFE

From article PMC7396842
